Measurements: doi:10.1101/209809
For part of these data: No signal at the amounts used counts as a negative. For part of these data: A weaker result is weaker than the reference pair of the same experiment.

Tests used:
Assay in all cases: EMSA
[1] = tested on: CPSF-160 + WDR33 (1-572) + CPSF-30; details: lower affinity than AAUAAA
MBP-CPSF-30 (human) = details: essentially no binding; residues 1-244
CPSF-160 + WDR33 (1-572) = details: only weak binding, no CPSF-30

## AACCUCCAAGAAACAAC [17-mer variant PAS RNA (AAgAAA)]
[1]
  binding result: binds more weakly

## AACCUCCAAUAAACAAC [17-mer PAS RNA (AAUAAA)]
MBP-CPSF-30 (human)
  binding result: no binding
CPSF-160 + WDR33 (1-572)
  binding result: binds more weakly
